Reference: the supplement of paper PMC10849652
The other results are listed elsewhere or left out.

Protein sequences, listed by entry. Tags and fused reporters are not part of them. Lines headed by an entry give the natural chain unless they say otherwise; changes in a name come on top.
UniProt Q13625: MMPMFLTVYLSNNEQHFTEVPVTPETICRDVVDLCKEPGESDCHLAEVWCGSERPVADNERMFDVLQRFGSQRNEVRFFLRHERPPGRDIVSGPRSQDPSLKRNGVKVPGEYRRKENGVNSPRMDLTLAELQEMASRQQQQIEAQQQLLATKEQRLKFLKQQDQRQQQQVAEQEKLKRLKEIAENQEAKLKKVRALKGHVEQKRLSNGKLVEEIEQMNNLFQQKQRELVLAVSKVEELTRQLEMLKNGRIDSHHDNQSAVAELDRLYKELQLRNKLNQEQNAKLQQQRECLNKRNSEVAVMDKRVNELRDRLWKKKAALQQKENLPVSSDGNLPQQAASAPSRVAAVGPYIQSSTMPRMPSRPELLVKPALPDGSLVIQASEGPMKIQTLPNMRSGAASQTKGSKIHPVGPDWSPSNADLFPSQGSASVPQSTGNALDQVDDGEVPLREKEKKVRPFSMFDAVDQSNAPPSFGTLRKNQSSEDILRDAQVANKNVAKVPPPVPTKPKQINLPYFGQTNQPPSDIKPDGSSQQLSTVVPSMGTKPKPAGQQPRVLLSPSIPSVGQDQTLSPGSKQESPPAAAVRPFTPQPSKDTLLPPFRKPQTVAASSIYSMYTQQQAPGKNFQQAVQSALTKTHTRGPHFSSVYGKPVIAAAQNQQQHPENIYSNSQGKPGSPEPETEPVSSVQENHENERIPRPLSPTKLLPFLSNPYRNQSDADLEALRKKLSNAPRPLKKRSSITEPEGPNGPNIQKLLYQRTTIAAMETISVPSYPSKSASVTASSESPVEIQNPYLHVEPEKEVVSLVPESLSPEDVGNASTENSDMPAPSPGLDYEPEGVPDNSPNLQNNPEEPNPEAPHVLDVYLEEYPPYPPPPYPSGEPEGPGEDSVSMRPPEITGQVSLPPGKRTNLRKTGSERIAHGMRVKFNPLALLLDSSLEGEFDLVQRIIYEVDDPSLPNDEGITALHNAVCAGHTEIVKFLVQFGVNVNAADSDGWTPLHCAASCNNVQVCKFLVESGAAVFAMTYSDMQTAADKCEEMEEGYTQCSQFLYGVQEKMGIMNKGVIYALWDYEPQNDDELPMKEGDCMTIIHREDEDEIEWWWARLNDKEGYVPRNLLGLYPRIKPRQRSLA
UniProt Q9BW30: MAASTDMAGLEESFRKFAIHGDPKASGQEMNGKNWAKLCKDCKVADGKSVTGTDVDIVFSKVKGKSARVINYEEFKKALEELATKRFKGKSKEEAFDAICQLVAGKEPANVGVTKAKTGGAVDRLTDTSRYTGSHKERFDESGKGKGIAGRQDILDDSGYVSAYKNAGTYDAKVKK
UniProt Q9H3S4: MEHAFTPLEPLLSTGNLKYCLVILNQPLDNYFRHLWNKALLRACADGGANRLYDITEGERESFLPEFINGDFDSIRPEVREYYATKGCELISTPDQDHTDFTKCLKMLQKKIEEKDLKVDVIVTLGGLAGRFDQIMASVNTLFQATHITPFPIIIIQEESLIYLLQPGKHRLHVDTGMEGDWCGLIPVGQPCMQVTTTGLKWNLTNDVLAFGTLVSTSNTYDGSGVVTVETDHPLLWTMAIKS
UniProt O95900: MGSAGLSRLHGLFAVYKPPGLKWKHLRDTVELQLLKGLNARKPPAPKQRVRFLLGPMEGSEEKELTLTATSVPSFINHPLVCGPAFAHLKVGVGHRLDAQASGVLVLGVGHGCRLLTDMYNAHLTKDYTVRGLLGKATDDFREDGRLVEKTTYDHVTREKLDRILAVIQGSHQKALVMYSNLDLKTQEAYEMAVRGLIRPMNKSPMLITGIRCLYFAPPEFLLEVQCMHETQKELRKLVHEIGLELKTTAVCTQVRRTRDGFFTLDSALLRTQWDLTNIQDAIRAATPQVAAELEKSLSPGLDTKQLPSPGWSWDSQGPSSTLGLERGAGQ
UniProt Q6ZVM7: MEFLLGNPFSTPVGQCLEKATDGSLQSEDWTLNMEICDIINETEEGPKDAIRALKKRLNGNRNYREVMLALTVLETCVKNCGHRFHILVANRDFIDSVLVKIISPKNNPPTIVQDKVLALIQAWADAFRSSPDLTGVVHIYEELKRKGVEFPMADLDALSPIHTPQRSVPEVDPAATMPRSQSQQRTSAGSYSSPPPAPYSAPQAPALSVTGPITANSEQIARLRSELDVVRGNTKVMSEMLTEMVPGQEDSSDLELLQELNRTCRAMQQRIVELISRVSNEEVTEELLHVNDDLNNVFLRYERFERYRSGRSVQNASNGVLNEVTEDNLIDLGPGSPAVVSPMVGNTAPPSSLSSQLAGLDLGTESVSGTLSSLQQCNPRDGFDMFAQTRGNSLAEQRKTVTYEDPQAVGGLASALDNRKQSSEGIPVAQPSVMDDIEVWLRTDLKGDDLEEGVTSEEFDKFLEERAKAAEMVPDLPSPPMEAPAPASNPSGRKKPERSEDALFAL
UniProt Q5T2D2: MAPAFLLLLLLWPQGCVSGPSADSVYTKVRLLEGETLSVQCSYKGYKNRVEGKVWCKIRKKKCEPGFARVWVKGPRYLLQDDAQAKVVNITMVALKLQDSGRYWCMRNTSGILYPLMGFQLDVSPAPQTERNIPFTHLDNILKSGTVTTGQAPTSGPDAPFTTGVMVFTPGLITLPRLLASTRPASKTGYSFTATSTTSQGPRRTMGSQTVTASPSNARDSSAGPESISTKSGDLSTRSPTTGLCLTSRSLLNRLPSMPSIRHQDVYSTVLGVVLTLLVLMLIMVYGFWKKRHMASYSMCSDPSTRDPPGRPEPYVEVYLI
UniProt Q6Q0C0: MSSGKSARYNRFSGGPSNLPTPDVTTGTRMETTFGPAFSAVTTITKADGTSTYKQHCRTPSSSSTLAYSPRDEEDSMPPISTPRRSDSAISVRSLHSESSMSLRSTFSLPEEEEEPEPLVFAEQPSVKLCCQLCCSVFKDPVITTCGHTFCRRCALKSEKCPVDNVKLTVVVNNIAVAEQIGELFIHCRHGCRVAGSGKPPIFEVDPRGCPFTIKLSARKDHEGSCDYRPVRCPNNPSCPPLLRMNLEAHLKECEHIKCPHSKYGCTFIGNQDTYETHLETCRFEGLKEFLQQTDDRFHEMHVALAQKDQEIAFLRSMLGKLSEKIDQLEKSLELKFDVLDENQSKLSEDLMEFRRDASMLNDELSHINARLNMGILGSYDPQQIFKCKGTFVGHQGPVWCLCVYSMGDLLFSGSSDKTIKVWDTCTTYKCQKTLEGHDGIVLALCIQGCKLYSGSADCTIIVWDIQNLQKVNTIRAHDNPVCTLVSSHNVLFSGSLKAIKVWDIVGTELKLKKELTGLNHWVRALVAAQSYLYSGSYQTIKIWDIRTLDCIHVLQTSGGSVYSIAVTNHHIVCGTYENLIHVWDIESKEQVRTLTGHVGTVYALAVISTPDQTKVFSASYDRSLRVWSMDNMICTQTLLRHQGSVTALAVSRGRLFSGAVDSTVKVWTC
UniProt P36406: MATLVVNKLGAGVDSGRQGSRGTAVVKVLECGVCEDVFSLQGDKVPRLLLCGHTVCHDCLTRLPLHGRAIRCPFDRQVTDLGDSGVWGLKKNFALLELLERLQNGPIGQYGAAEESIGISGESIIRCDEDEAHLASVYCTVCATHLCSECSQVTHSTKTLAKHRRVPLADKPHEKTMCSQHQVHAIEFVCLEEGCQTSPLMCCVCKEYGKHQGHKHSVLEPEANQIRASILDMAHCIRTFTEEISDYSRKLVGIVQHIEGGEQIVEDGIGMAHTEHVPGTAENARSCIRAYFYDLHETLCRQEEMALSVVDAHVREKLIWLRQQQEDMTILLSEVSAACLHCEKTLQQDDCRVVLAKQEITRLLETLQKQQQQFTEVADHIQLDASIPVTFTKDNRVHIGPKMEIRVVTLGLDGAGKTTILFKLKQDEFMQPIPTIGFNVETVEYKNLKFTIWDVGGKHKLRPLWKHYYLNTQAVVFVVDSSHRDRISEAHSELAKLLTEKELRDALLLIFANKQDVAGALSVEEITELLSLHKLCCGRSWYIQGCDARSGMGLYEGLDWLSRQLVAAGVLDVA
UniProt Q9Y5R8, whole entry, looked up: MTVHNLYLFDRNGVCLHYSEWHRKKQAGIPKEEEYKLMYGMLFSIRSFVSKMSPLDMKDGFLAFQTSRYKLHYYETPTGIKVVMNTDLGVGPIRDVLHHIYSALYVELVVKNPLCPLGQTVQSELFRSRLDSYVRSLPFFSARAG
UniProt Q9BSV6: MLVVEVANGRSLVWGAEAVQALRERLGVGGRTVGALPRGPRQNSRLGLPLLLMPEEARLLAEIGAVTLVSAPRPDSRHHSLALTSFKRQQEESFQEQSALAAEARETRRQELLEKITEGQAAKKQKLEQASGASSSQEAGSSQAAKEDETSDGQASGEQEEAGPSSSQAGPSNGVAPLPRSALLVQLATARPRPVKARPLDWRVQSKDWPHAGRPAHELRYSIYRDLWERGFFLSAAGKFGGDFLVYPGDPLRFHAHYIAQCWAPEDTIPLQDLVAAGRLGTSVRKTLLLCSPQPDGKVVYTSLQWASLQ
UniProt Q12888: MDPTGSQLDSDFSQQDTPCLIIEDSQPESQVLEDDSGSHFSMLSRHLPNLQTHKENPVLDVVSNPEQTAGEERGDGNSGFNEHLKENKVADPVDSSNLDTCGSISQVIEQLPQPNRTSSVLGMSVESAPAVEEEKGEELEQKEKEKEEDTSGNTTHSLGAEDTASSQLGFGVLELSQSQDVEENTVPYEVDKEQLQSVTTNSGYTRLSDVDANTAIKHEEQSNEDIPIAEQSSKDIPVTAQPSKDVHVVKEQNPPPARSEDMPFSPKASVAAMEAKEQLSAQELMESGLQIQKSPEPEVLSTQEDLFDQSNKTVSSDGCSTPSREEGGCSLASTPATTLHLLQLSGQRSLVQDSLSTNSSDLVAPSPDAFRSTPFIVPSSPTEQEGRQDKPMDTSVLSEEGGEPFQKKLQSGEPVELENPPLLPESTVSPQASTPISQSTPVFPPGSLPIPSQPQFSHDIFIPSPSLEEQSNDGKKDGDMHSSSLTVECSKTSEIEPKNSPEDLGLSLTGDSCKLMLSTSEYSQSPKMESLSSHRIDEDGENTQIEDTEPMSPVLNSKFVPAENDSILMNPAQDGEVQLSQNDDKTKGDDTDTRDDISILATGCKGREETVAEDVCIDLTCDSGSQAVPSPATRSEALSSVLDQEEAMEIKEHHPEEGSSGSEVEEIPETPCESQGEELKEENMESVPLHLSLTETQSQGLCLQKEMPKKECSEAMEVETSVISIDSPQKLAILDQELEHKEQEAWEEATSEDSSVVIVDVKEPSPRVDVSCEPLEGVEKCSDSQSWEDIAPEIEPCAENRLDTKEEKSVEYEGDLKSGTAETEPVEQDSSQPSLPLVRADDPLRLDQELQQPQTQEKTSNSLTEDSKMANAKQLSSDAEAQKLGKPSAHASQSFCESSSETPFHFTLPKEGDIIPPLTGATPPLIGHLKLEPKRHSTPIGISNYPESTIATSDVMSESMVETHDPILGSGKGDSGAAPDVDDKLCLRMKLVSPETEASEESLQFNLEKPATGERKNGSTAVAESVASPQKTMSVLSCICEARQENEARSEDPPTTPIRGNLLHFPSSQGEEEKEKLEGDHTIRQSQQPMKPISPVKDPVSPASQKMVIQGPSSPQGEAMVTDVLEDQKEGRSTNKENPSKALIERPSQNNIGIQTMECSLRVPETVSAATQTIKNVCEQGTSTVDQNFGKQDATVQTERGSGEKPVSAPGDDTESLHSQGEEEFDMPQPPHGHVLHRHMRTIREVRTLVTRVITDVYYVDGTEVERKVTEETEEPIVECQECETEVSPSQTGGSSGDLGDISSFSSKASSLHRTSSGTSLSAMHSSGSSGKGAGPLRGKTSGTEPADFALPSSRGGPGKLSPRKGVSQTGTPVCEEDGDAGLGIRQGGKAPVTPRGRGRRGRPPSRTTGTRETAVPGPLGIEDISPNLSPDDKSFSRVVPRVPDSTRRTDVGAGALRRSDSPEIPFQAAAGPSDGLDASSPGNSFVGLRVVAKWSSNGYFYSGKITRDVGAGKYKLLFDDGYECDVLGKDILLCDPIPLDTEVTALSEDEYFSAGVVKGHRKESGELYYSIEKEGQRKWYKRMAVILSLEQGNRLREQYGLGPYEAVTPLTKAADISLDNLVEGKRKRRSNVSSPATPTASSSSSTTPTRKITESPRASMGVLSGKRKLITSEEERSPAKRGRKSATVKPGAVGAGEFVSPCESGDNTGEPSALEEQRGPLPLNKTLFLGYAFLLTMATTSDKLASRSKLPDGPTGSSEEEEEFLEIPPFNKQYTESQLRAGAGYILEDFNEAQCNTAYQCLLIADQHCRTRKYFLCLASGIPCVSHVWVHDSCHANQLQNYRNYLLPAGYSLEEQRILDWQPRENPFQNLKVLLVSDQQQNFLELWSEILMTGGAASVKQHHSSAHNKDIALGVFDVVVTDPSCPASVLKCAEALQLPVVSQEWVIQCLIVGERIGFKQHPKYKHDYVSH

Compound: CON(C)C(=O)N1N=C(c2cc(F)ccc2F)S[C@@]1(CCCN)c1ccccc1 [filanesib]
Assay: log2 fold change, soluble protein after heating vs DMSO (PISA); higher = thermal stabilisation; K562 cells, 10 uM, 30 min; active = over 0.2 and 3.5 SD of the protein, either way, in both replicates (recomputed)
Outline: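 Thermal stability values are relative to control samples and come from duplicates. They are expressed as log2 fold changes. For measurement, K562 cells (2×10^6 cells/mL) received 10 μM compound for 30 min, and aliquots were heated for 3 min over 48°C-58°C, pooled, and extracted at 4°C in PBS with 0.5% NP-40. Soluble protein, the supernatant after 21,000xg for 90 min, was quantified by TMTpro 16plex LC-MS/MS with equalised channel sums.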

log2 fold change, inactive:
TP53BP2 isoform 3 (UniProt Q13625) 0.108, TRIP11 (UniProt Q15643) -0.034, TPP2 (UniProt Q5VZU9) 0.109, TPPP3 (UniProt Q9BW30) 0.048, TOM1 (UniProt O60784) -0.061, TPK1 (UniProt Q9H3S4) -0.011, TRUB2 (UniProt O95900) 0.061, TRIM4 (UniProt Q9C037) 0.003, TOM1L2 (UniProt Q6ZVM7) 0.029, TNRC6B (UniProt Q9UPQ9) 0.368, TREML2 (UniProt Q5T2D2) 0.012, TRAF7 (UniProt Q6Q0C0) -0.107, TRIM23 (UniProt P36406) -0.031, TRIM24 (UniProt O15164) -0.085, TRAPPC1 (UniProt Q9Y5R8) 0.036, TRAPPC11 (UniProt Q7Z392) -0.018, TSEN34 (UniProt Q9BSV6) -0.07, TRPC4AP (UniProt Q8TEL6) 0.062, TP53BP1 isoform 2 (UniProt Q12888) 0.059, TNFRSF8 (UniProt P28908) 0.11, TRMT10C (UniProt Q7L0Y3) -0.031, TRIO (UniProt O75962) -0.044, TRPT1 isoform 4 (UniProt Q86TN4) -0.053
